Data taken from article PMC7140707.
These are yes or no findings as the source states them, for the method shown. Binding seen in cells or lysates may run through a third protein. Here binding means that the protein was enriched with, or labelled near, the bait; the list need not be complete. Where a sequence is shown, tags or fusion partners need not be part of it.

B1: SCS2 (protein, UniProt P40075 1-244)
chain: MSAVEISPDVLVYKSPLTEQSTEYASISNNSDQTIAFKVKTTAPKFYCVRPNAAVVAPGETIQVQVIFLGLTEEPAADFKCRDKFLVITLPSPYDLNGKAVADVWSDLEAEFKQQAISKKIKVKYLISPDVHPAQNQNIQENKETVEPVVQDSEPKEVPAVVNEKEVPAEPETQPPVQVKKEEVPPVVQKTVPHENEKQTSNSTPAPQNQIKEAATVPAENESSSMGIFILVALLILVLGWFYR
B2: SDS22 (protein, UniProt P36047 1-338)
chain: MDKNSVNKDSEEKDERHKIEVVDDTNPDFITADSELTQDLPDDVEVIDLVHLKIKSLEDLNLYRFKNLKQLCLRQNLIESISEVEVLPHDKIVDLDFYDNKIKHISSNVNKLTKLTSLDLSFNKIKHIKNLENLTDLENLYFVQNSISKIENLSTLKSLKNLELGGNKVHSIEPDSFEGLSNLEEIWLGKNSIPRLINLHPLKNLKILSIQSNKLKKIENLEELTNLEELYLSHNFITKIEGLEKNLKLTTLDVTSNKITSLENLNHLSNLTDIWASFNKIDQSFESLGENLSALSRLETIYLEGNPIQLENKTSYRRKLTMNLPPSLQKIDATYIRG
B3: SHE1 (protein, UniProt P38200 1-338)
chain: MNDKLQEEHNEKDTTSQINGFTPPHMSIDFHSNNNSNIIETIGVSKRLGNSVLSELDSRASSKFEFLKDQSEQQYNGDKNNEPKSGSYNINEFFQAKHDSQFGQMESLDTHYTLLHTPKRKSQHAIPQDRSDSMKRSRPSRSIPYTTPVVNDITRRIRRLKLRNSLVNGNDIVARARSMQANSNINSIKNTPLSKPKPFMHKPNFLMPTTNSLNKINSAHRNTSSSSTASSIPRSKVHRSISIRDLHAKTKPVERTPVAQGTNSQLKNSVSVFDRLYKQTTFSRSTSMNNLSSGTSAKSKEHTNVKTRLVKSKTSGSLSSNLKQSTATGTKSDRPIWR
B4: SIP2 (protein, UniProt P34164 1-415)
chain: MGTTTSHPAQKKQTTKKCRAPIMSDVREKPSNAQGCEPQEMDAVSKKVTELSLNKCSDSQDAGQPSREGSITKKKSTLLLRDEDEPTMPKLSVMETAVDTDSGSSSTSDDEEGDIIAQTTEPKQDASPDDDRSGHSSPREEGQQQIRAKEASGGPSEIKSSLMVPVEIRWQQGGSKVYVTGSFTKWRKMIGLIPDSDNNGSFHVKLRLLPGTHRFRFIVDNELRVSDFLPTATDQMGNFVNYIEVRQPEKNPTNEKIRSKEADSMRPPTSDRSSIALQIGKDPDDFGDGYTRFHEDLSPRPPLEYTTDIPAVFTDPSVMERYYYTLDRQQSNTDTSWLTPPQLPPQLENVILNKYYATQDQFNENNSGALPIPNHVVLNHLVTSSIKHNTLCVASIVRYKQKYVTQILYTPIESS
B5: SNF4 (protein, UniProt P12904 1-322)
chain: MKPTQDSQEKVSIEQQLAVESIRKFLNSKTSYDVLPVSYRLIVLDTSLLVKKSLNVLLQNSIVSAPLWDSKTSRFAGLLTTTDFINVIQYYFSNPDKFELVDKLQLDGLKDIERALGVDQLDTASIHPSRPLFEACLKMLESRSGRIPLIDQDEETHREIVVSVLTQYRILKFVALNCRETHFLKIPIGDLNIITQDNMKSCQMTTPVIDVIQMLTQGRVSSVPIIDENGYLINVYEAYDVLGLIKGGIYNDLSLSVGEALMRRSDDFEGVYTCTKNDKLSTIMDNIRKARVHRFFVVDDVGRLVGVLTLSDILKYILLGSN
B6: SOK1 (protein, UniProt P40317 1-901)
chain: MDQPRTHSGPTTASNPAPSSTNSSSAPSATNSKQERSSSSLSKPSSVVPSKDSPDGDAIAKTQAAALKNDMKSGDTSTLDGSSQNIIPNRASMQKYIDQSSDLLSRSSGVITPSMSLNASTNATNNDSSGNSANSSDLKIPIDRDNTIFKTFDTKTGQFLKNDDNEEEIRRNNKVDSIPPKNIYTNINNPSPSPPPSSKQPPSASAPQLPPATEPHKEQAAQQQPPGNASNFLRIFSNKKMRSHSVPTILHSSLRKLSSHNQYYRNQNILLNHPTPSGISKKKFSRNHHQPYLHSNNPLSSNPLSLKRAIFLNQQISGNASTNANNDNINNSTATSMTNQSFLSSSNFDLTLEDRINYIKATPTPVPFPPINLQGLKEIDLQEILKNPQLRHDIIFDPLLQFRPNLDGERGNKKRQLANIYWNDVQNEIYVYSKRPEIFQYNRSRLVPLFDTLRDVLLTIVPQKESPMINNVLDTELNIQELLKGSLIMSNLSGWLADLFKHHCAPMRDPWVDKMSNKFKEAERDSSLTRLIEGLRLVFQILETMKLDIANHQIRILRPALLSNAVEFEKQYFNTLIASKRVNLNTSLLWFDKKFNENVTAGLVRNPSSITIPDVYNICIRSIINLLSCRKMVREYPTPLSFDHARLILLRADIRQIVCILVCRLLFQQLVANDPSMDKATKEYVIHTYSTKRLKNEIISIITDEHGNCRWTKNTMSIAVHLCKVIDDLHREYDNNGSCEQARRPQLPSLDNSKITFAKSWLSKQTQPLSEVYGVLENRVFKSLEDAIFNRSECTIDGRVKQDFVYLYNTNNGNVGSTNTLSTTTDTASVKISPSLMSPSKTSTTTPTGNAIASRGLFAATELEEFENVYRHLYALINLHWSVFGPHYIEMLGDKVNKKGI
B7: SUA7 (protein, UniProt P29055 1-345)
chain: MMTRESIDKRAGRRGPNLNIVLTCPECKVYPPKIVERFSEGDVVCALCGLVLSDKLVDTRSEWRTFSNDDHNGDDPSRVGEASNPLLDGNNLSTRIGKGETTDMRFTKELNKAQGKNVMDKKDNEVQAAFAKITMLCDAAELPKIVKDCAKEAYKLCHDEKTLKGKSMESIMAASILIGCRRAEVARTFKEIQSLIHVKTKEFGKTLNIMKNILRGKSEDGFLKIDTDNMSGAQNLTYIPRFCSHLGLPMQVTTSAEYTAKKCKEIKEIAGKSPITIAVVSIYLNILLFQIPITAAKVGQTLQVTEGTIKSGYKILYEHRDKLVDPQLIANGVVSLDNLPGVEKK
B8: DIG1 (protein, UniProt Q03063 1-452)
chain: MAVSARLRTTAEDTSIAKSTQDPIGDTEISVANAKGSSDSNIKNSPGGNSVGQESELEHVPEEDDSGDKEADHEDSETATAKKRKAQPLKNPKKSLKRGRVPAPLNLSDSNTNTHGGNIKDGNLASSNSAHFPPVANQNVKSAPAQVTQHSKFQPRVQYLGKASSRQSIQVNNSSNSYGKPHMPSAGIMSAMNPYMPMNRYIMSPYYNPYGIPPPHMLNKPIMTPYVSYPYPMGPRTSIPYAMQGGNARPYEENEYSASNYRNKRVNDSYDSPLSGTASTGKTRRSEEGSRNSSVGSSANAGPTQQRADLRPADMIPAEEYHFERDALLSANTKARSASTSTSTSTSTNRDRSSWHEAEPNKDEEEGTDLAIEDGAVPTPTFTTFQRTSQPQQQSPSLLQGEIRLSSHIFAFEFPLSSSNVDKKMFMSICNKVWNESKELTKKSSSHHRTGK
B9: VMA13 (protein, UniProt P41807 1-478)
chain: MGATKILMDSTHFNEIRSIIRSRSVAWDALARSEELSEIDASTAKALESILVKKNIGDGLSSSNNAHSGFKVNGKTLIPLIHLLSTSDNEDCKKSVQNLIAELLSSDKYGDDTVKFFQEDPKQLEQLFDVSLKGDFQTVLISGFNVVSLLVQNGLHNVKLVEKLLKNNNLINILQNIEQMDTCYVCIRLLQELAVIPEYRDVIWLHEKKFMPTLFKILQRATDSQLATRIVATNSNHLGIQLQYHSLLLIWLLTFNPVFANELVQKYLSDFLDLLKLVKITIKEKVSRLCISIILQCCSTRVKQHKKVIKQLLLLGNALPTVQSLSERKYSDEELRQDISNLKEILENEYQELTSFDEYVAELDSKLLCWSPPHVDNGFWSDNIDEFKKDNYKIFRQLIELLQAKVRNGDVNAKQEKIIIQVALNDITHVVELLPESIDVLDKTGGKADIMELLNHSDSRVKYEALKATQAIIGYTFK

What follows are binders tested against T1, His6-Gis1 (yeast (S. cerevisiae)) (UniProt Q03833) (assay: affinity purification with mass spectrometry; His6-Gis1 pre-bound to a Ni Sepharose 6 Fast Flow column; crude yeast extract (Δgis1 cells grown in air or under hypoxia, Δgis1Δhem1 cells at intermediate or high ALA) loaded, 4 °C, 2 h; eluted complexes separated by SDS-PAGE, bands excised, MS; only the target purified).
T1 sequence: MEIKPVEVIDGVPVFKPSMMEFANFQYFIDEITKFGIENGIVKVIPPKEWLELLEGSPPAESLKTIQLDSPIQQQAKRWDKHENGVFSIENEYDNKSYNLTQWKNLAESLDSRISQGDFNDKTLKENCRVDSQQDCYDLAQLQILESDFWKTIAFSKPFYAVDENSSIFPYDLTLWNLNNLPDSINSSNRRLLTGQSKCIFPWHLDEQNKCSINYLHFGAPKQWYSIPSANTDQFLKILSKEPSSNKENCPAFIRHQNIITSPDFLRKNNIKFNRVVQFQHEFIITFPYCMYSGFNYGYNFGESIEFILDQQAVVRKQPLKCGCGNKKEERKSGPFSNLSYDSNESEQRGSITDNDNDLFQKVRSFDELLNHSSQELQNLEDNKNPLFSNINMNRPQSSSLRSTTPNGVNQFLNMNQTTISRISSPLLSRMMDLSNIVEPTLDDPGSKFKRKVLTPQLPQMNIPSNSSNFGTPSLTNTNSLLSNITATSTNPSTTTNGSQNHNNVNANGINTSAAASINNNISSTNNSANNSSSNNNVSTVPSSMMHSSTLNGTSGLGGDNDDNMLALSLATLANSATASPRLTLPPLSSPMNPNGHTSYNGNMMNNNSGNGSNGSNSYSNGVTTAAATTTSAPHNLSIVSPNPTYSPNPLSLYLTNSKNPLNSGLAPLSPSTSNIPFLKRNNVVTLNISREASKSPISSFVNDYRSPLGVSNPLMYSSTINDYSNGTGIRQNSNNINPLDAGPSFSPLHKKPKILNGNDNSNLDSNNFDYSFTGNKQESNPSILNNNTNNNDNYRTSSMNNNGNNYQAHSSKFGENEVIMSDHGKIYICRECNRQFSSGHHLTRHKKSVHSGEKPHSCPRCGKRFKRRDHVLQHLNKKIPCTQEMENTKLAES
B1 was tested, and the binding was “binds”.
In the case of B2, the binding is reported as “binds”.
For B3, the binding was “binds”.
In the case of B4, the binding is reported as “binds”.
B5 was tested, and the binding was “binds”.
In the case of B6, the binding is reported as “binds”.
In the case of B7, the binding is reported as “binds”.
For B8, the binding was “binds”.
With B9 the binding was “binds”.
